Measurements published in the supplement of paper PMC4604168 (melanoma cell lines).
The other results are listed elsewhere or left out. Repeats are few or missing, and single values can be far off.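 Cells were imaged in 1,536-well plates, and nuclei stained with an antibody against cleaved PARP were counted against all DNA-stained nuclei to give the apoptosis fraction. Screening doses were chosen to leave most cells alive, and resting and induced cleaved-PARP levels differ strongly between cell lines.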

Tested on: SkMel30
Assay: cleaved PARP positive nuclei fraction relative to DMSO control; melanoma cells; higher = more apoptosis
Settings: library dose: low library concentration; 72 h

Compared with Oc1cc(-c2nc(-c3ccccc3)[nH]c2-c2ccncc2)ccc1Cl + c1cc(-c2cnn3cc(-c4ccc(OCCN5CCCCC5)cc4)cnc23)ccn1 [Dorsomorphin] (first compound 0.2 µM, partner dose 0.4 µM), O=C(O)c1ccc(-c2c[nH]c3ncc(-c4ccccc4)cc23)cc1C1CCCC1 + Cn1cc(/C=C2\C(=O)Nc3cccnc32)c2ccccc21 [GW441756] (first compound 0.16 µM, partner dose 0.4 µM) is lower in “cleaved PARP positive nuclei fraction” value: 112% for the first, 21.1% for the second.

Going from Oc1nc(-c2ccc(C(F)(F)F)cc2)nc2c1CSCC2 + CCCCCCCCCCCC1=C(O)C(=O)C=C(O)C1=O [Embelin] (first compound 2 µM, partner dose 1.2 µM) to NCC(=O)Nc1ccc(-n2nc(C(F)(F)F)cc2-c2ccc3c(ccc4ccccc43)c2)cc1 + Cn1cc(/C=C2\C(=O)Nc3cccnc32)c2ccccc21 [GW441756] (first compound 1 µM, partner dose 0.4 µM), the “cleaved PARP positive nuclei fraction” value rises from 55.7% to 153%.

Compared with CN(C)S(=O)(=O)c1ccc2c(c1)/C(=C/c1cc3c([nH]1)CCCC3)C(=O)N2 + CCN(CC)CCCCNc1ncc2cc(-c3cc(OC)cc(OC)c3)c(NC(=O)NC(C)(C)C)nc2n1 [PD173074] (first compound 0.4 µM, partner dose 0.1 µM), O=C(O)c1ccc(-c2c[nH]c3ncc(-c4ccccc4)cc23)cc1C1CCCC1 + Oc1nc(-c2ccc(C(F)(F)F)cc2)nc2c1CSCC2 [XAV939] (first compound 0.16 µM, partner dose 2 µM) is higher in “cleaved PARP positive nuclei fraction” value: 15.3% for the first, 102% for the second.

Compared with COc1ccc(-c2ccc3c(N4CCOCC4)nc(N4C[C@@H](C)O[C@@H](C)C4)nc3n2)cc1CO + O=c1cc(-c2cccc3c2Sc2ccccc2S3)oc(N2CCOCC2)c1 [KU55933] (first compound 0.02 µM, partner dose 1 µM), COc1cc2c(Oc3ccc4[nH]c(C)cc4c3F)ncnc2cc1OCCCN1CCCC1 [cediranib] + CCN(CC)CCCCNc1ncc2cc(-c3cc(OC)cc(OC)c3)c(NC(=O)NC(C)(C)C)nc2n1 [PD173074] (first compound 0.4 µM, partner dose 0.1 µM) is lower in “cleaved PARP positive nuclei fraction” value: 49.6% for the first, 48.1% for the second.

First: COc1ccc(-c2ccc3c(N4CCOCC4)nc(N4C[C@@H](C)O[C@@H](C)C4)nc3n2)cc1CO + CC(C)CCN1c2nc(Nc3cc(F)c(O)c(F)c3)ncc2N(C)C(=O)C1C [BID1870] (first compound 0.02 µM, partner dose 0.2 µM)
Second: COc1cc2c(Oc3ccc4[nH]c(C)cc4c3F)ncnc2cc1OCCCN1CCCC1 [cediranib] + Oc1cc(-c2nc(-c3ccccc3)[nH]c2-c2ccncc2)ccc1Cl [L779450] (first compound 0.4 µM, partner dose 0.2 µM)
The “cleaved PARP positive nuclei fraction” value of the first is higher: 222% for the first, 138% for the second.

Going from CCN(CC)CCCCNc1ncc2cc(-c3cc(OC)cc(OC)c3)c(NC(=O)NC(C)(C)C)nc2n1 + Cc1cc([N+](=O)[O-])ccc1NS(=O)(=O)c1cc(Cl)ccc1Cl [FH535] (first compound 0.1 µM, partner dose 1 µM) to COc1ccc2c(c1)CCC1C2CCC2(C)C(NCCCCCCN3C(=O)C=CC3=O)CCC12 (stereo not given) + Oc1cc(-c2nc(-c3ccccc3)[nH]c2-c2ccncc2)ccc1Cl [L779450] (first compound 0.4 µM, partner dose 0.2 µM), the “cleaved PARP positive nuclei fraction” value falls from 219% to 49.1%.

Compared with N#Cc1c(O)c2c(-c3ccc(-c4ccccc4O)cc3)csc2[nH]c1=O + COc1cc(N2CCC(N3CCN(C)CC3)CC2)ccc1Nc1ncc(Cl)c(Nc2ccccc2S(=O)(=O)C(C)C)n1 [NVP-TAE684] (first compound 2 µM, partner dose 0.08 µM), Oc1cc(-c2nc(-c3ccccc3)[nH]c2-c2ccncc2)ccc1Cl + COc1cc(N2CCC(N3CCN(C)CC3)CC2)ccc1Nc1ncc(Cl)c(Nc2ccccc2S(=O)(=O)C(C)C)n1 [NVP-TAE684] (first compound 0.2 µM, partner dose 0.08 µM) is higher in “cleaved PARP positive nuclei fraction” value: 11.6% for the first, 67.6% for the second.

Going from O=S(=O)(c1ccccc1)N(CC(F)(F)F)c1ccc(C(O)(C(F)(F)F)C(F)(F)F)cc1 + Cn1cc(/C=C2\C(=O)Nc3cccnc32)c2ccccc21 [GW441756] (first compound 1.4 µM, partner dose 0.4 µM) to COC(=O)c1sccc1S(=O)(=O)Nc1ccc(Nc2ccccc2)cc1OC + CCCCCCCCCCCC1=C(O)C(=O)C=C(O)C1=O [Embelin] (first compound 1 µM, partner dose 1.2 µM), the “cleaved PARP positive nuclei fraction” value rises from 24.9% to 33.2%.

Going from N#Cc1c(O)c2c(-c3ccc(-c4ccccc4O)cc3)csc2[nH]c1=O + CC(C)CCN1c2nc(Nc3cc(F)c(O)c(F)c3)ncc2N(C)C(=O)C1C [BID1870] (first compound 2 µM, partner dose 0.2 µM) to O=S(=O)(c1ccccc1)N(CC(F)(F)F)c1ccc(C(O)(C(F)(F)F)C(F)(F)F)cc1 + Oc1cc(-c2nc(-c3ccccc3)[nH]c2-c2ccncc2)ccc1Cl [L779450] (first compound 1.4 µM, partner dose 0.2 µM), the “cleaved PARP positive nuclei fraction” value rises from 33.8% to 120%.

Going from CN(NC(=O)CC(=O)NN(C)C(=S)c1ccccc1)C(=S)c1ccccc1 + COC(=O)c1sccc1S(=O)(=O)Nc1ccc(Nc2ccccc2)cc1OC [GSK0660] (first compound 0.006 µM, partner dose 1 µM) to COc1cc2c(Oc3ccc4[nH]c(C)cc4c3F)ncnc2cc1OCCCN1CCCC1 [cediranib] + O=C(O)C(=O)Nc1sc2c(c1C(=O)O)CCNC2 [TCS401] (first compound 0.4 µM, partner dose 1.66667 µM), the “cleaved PARP positive nuclei fraction” value falls from 125% to 39.4%.
